# According to PubChem BioAssay AID540276 (National Center for Advancing Translational Sciences (NCATS), 2011):
# The whole screen tested about 300,000 compounds, of which about 5,400 (1.8%) were called active. Inconclusive results, whose numbers are uncertain, are shown with a selection of clear calls. Calls come from the whole dose curve; tested in HEK293 cells. Potencies of inconclusive entries are doubtful fits and often do not repeat.
# Assay: qHTS for inhibitors of binding or entry into cells for Marburg Virus
# Conditions: Marburg virus pseudotyped entry inhibition, cell reporter; series mostly up to 37.8 µM
# Potency is the fitted concentration of half-maximal effect.
row,SMILES,Potency
1,O=[N+]([O-])c1ccc(/C=N/n2c(-c3cccnc3)n[nH]c2=S)cc1,"inconclusive: 35.5 µM [activator, single point]"
2,CC(C)=NNc1nc(-c2ccccc2)c(C)s1,inactive
3,O=C(c1ccccc1Oc1ccccc1)N1CCN(c2ccc(F)cc2)CC1,inactive
4,C#CC(C)(CC)NC(=O)Cn1nnc(-c2ccc(OCc3ccccc3Cl)cc2)n1 (stereo not drawn),"inconclusive: 31.6 µM [activator, single point]"
5,Cc1ccc(-c2noc(-c3ccccc3Br)n2)cc1,"inconclusive: 14.1 µM [inhibitor, single point]"
6,CN(C)c1ccc(-c2nc3ccccc3n2C)cc1,"inconclusive: 2.59 µM [inhibitor, full curve, poor fit]"
7,O=C(CCc1nnc(Cc2ccc(-c3ccccc3)cc2)o1)N1CCCC1,"inconclusive: 2.82 µM [inhibitor, single point]"
8,CN(C)c1ccc(N=Nc2ccccc2C(=O)OCC(=O)N(C)C2CCCCC2)cc1,"inconclusive: 1.58 µM [inhibitor, single point]"
9,CCc1ccc(OCC(=O)N2CC(C(N)=O)Oc3ccccc32)cc1 (stereo not drawn),inactive
10,Cc1ccc(N=Nc2c(C)[nH]n(C(N)=S)c2=O)cc1,inactive
11,CC(=O)Oc1ccc2ccccc2c1C(NC(=O)C(C)C)c1cccc([N+](=O)[O-])c1 (stereo not drawn),"inconclusive: 16.4 µM [inhibitor, single point]"
12,OC(c1ccccc1)(c1ccccc1)c1nccn1-c1ccccc1,"inconclusive: 12.6 µM [inhibitor, partial curve, poor fit]"
13,O=C(Cc1csc2ccccc12)NCc1ccc(F)cc1,inactive
14,Cc1cccc(Nc2nc(NCc3ccco3)nc(N3CCOCC3)n2)c1,active: 2.31 µM
15,Cc1cc(Cl)cc(Br)c1OCCCNCC(C)O (stereo not drawn),"inconclusive: 22.4 µM [inhibitor, single point]"
16,Cc1ccccc1Nc1nnc(-c2ccc(C)c(S(=O)(=O)N3CCN(C)CC3)c2)c2ccccc12,"inconclusive: 11.2 µM [inhibitor, partial curve, poor fit]"
17,O=C(C(Cc1ccccc1)N1C(=O)c2ccccc2C1=O)N1c2ccccc2CCc2ccccc21 (stereo not drawn),"inconclusive: 11.6 µM [inhibitor, partial curve, poor fit]"
18,Oc1cc(-c2ccccc2)c2ccccc2c1,inactive
19,O=C1NC(=O)N(Cc2ccc(F)cc2)C(=O)/C1=C/c1cccs1,inactive
20,COc1ccc(C(C(=O)Nc2ccc(C(C)C)cc2)N(C)C(=O)Cc2cccs2)cc1 (stereo not drawn),inactive
21,CN(C(=O)CSc1nnc(CN2CCCC2)n1Cc1ccccc1)c1ccccc1,"inconclusive: 35.5 µM [inhibitor, single point]"
22,CCCCN1CC(N2CCN(C(=O)c3ccco3)CC2)CS1(=O)=O (stereo not drawn),"inconclusive: 0.005 µM [inhibitor, full curve, poor fit]"
23,CCOC(=O)C1CN(C)CCC1=O (stereo not drawn),"inconclusive: 35.5 µM [inhibitor, single point]"
24,CCCn1c(/C=C/c2ccccc2)nc2ccccc21,inactive

# In another format: results already given
row | SMILES | Potency
15 | Cc1cc(Cl)cc(Br)c1OCCCNCC(C)O (stereo not drawn) | inconclusive: 22.4 µM [inhibitor, single point]
16 | Cc1ccccc1Nc1nnc(-c2ccc(C)c(S(=O)(=O)N3CCN(C)CC3)c2)c2ccccc12 | inconclusive: 11.2 µM [inhibitor, partial curve, poor fit]
17 | O=C(C(Cc1ccccc1)N1C(=O)c2ccccc2C1=O)N1c2ccccc2CCc2ccccc21 (stereo not drawn) | inconclusive: 11.6 µM [inhibitor, partial curve, poor fit]

# Remaining list, next part:

row,SMILES,Potency
1,COc1cccc(C(=O)Nc2cccc(OC(C)=O)c2)c1,inactive
2,Cc1ccc(NC(=O)Nc2cccc(C(F)(F)F)c2)nc1,"inconclusive: 35.5 µM [activator, single point]"
3,CCOC(=O)c1c(-c2cccs2)csc1NC(=O)C(C)(C)C,inactive
4,CC(C)COC(=O)n1ccc(C(=O)N2CCCCC2)n1,"inconclusive: 29.1 µM [activator, single point]"
5,Nc1nc(NCC(=O)O)nc(N2CCCCCC2)c1[N+](=O)[O-],"inconclusive: 1.41 µM [activator, partial curve, poor fit]"
6,COc1ccc(Cn2c(=O)[nH]c3cc(C(=O)N4CCN(Cc5ccccc5)CC4)ccc3c2=O)cc1,"inconclusive: 29.1 µM [inhibitor, single point]"
7,Brc1ccc(N=NNc2ccccc2)cc1,"inconclusive: 35.5 µM [inhibitor, single point]"
8,COc1ccc(NS(=O)(=O)c2ccc3oc(SCc4ccc(F)cc4)nc3c2)cc1,"inconclusive: 8.91 µM [inhibitor, single point]"
9,CCOC(=O)N1N=C(c2ccccc2)CC1(O)C(C)(F)F (stereo not drawn),inactive
10,CCn1c(/C=N/n2cnnc2)nc2ccccc21,inactive
11,Cc1ccc(O)c(NC(=O)CCC2CCCCC2)c1,inactive
12,COc1ccc(N2CCN(C(=O)c3cc(-c4ccc(C)c(F)c4)on3)CC2)cc1,inactive
13,COc1cccc(OC)c1C(=O)NC(=S)Nc1ccc(N2CCOCC2)c(Cl)c1,"inconclusive: 17.8 µM [inhibitor, single point]"
14,Cc1c([N+](=O)[O-])c([N+](=O)[O-])nn1CC(=O)N1CCOCC1,inactive
15,O=c1c(-c2ccc(F)cc2)coc2cc(O)ccc12,inactive
16,Cc1ccc(N(CC(O)Cn2nc(C)cc2C)S(=O)(=O)c2ccc3ccccc3c2)cc1 (stereo not drawn),"inconclusive: 17.8 µM [inhibitor, single point]"
17,COCCNC(=S)N/N=C(\C)c1ccc(Cl)c(Cl)c1Cl,"inconclusive: 0.794 µM [inhibitor, full curve, poor fit]"
18,Cn1c(SCCN2CCCCC2)nnc1-c1ccccc1Br,"inconclusive: 9.2 µM [inhibitor, partial curve]"
19,CCCCN(C)C(=O)c1sc2ncn(CC)c(=O)c2c1C,inactive
20,CCN(CC(=O)Nc1c(F)cccc1F)C(=O)CCNS(=O)(=O)c1ccccc1C(F)(F)F,"inconclusive: 1.58 µM [inhibitor, partial curve, poor fit]"
21,C/C(=N\NC(=S)NCCc1ccccc1)c1ccc(C)cc1,active: 16.4 µM
22,CC1N(C)c2cc(NC(=O)c3cccs3)c(P(=O)(Nc3ccc([N+](=O)[O-])cc3)N3CCOCC3)cc2C1(C)C (stereo not drawn),"inconclusive: 12.6 µM [inhibitor, partial curve, poor fit]"
23,COc1cc(C)c(Cl)cc1S(=O)(=O)N1CCCC1,inactive
24,CCc1noc(C)c1C(=O)Nc1nc(-c2ccc(NC(C)=O)cc2)cs1,"inconclusive: 15.8 µM [inhibitor, partial curve, poor fit]"
